PubChem BioAssay AID1259290, Sanger Institute, 2017

- Test: 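Identify kinases needed for colorectal cancer cell survival, with or without anchor drugs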 (primary screen)
- System: human SNUC1 colorectal cancer cells
- Reagent: siRNA pool against human genes
- Treatment: anchor drugs BYL719 1 µM, cetuximab 5 µg/ml or trametinib 10 nM, or DMSO vehicle alone
- Measured: 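Cell viability relative to a non-targeting siRNA control, replicate-averaged, as robust z-score for knock-down alone, plus a synergy score for each anchor drug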
- Direction: viability z-score, siRNA alone: higher = more viable cells; low values mean essential gene
- Call rule: 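a knock-down without drug scoring a robust z under -3 counts as essential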
- Meaning of the calls: active = essential: knock-down alone cut viability (z below -3); inactive = no clear viability loss with knock-down alone
This is one part, drawn at random, of 794 reagents tested. 9 of them (1.1%) count as active. 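Calls rest on knock-down alone, not drug synergy; synergy above 0.15 was grouped apart and does not affect calls.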 Not all columns of the deposit are shown. No sequences are given here. Not given: the amount of reagent, the time to read-out.

Knock-down of PRKAR1A gave: viability z-score, siRNA alone 0.318; inactive. Against NME2 (NME/NM23 nucleoside diphosphate kinase 2), the values are viability z-score, siRNA alone 0.936; inactive. Against JAK3 (Janus kinase 3) the deposit lists viability z-score, siRNA alone 0.936; inactive. With knock-down of MAP2K5 (mitogen-activated protein kinase kinase 5) the results were viability z-score, siRNA alone 0.936; inactive. After knock-down of IGF1R (insulin like growth factor 1 receptor), the record shows viability z-score, siRNA alone -0.814; inactive. With knock-down of NEK5 (NIMA related kinase 5), the screen gave viability z-score, siRNA alone -1.11; inactive.

Silencing of BMPR1A (bone morphogenetic protein receptor type 1A) resulted in: viability z-score, siRNA alone -0.645; inactive. After knock-down of FASTK (Fas activated serine/threonine kinase) the results were viability z-score, siRNA alone 0.547; inactive. XYLB (xylulokinase) gave viability z-score, siRNA alone 0.667; inactive. Silencing of DYRK3 (dual specificity tyrosine phosphorylation regulated kinase 3) resulted in: viability z-score, siRNA alone -1.4; inactive. Silencing of STK4 (serine/threonine kinase 4) resulted in: viability z-score, siRNA alone 0.261; inactive. Knock-down of STK10 (serine/threonine kinase 10) gave: viability z-score, siRNA alone -0.379; inactive.

CDK5R1 (cyclin dependent kinase 5 regulatory subunit 1) scored viability z-score, siRNA alone -0.0843; inactive. STK16 (serine/threonine kinase 16) gave viability z-score, siRNA alone 0.68; inactive. After knock-down of PIP4K2C (phosphatidylinositol-5-phosphate 4-kinase type 2 gamma) the results were viability z-score, siRNA alone -0.132; inactive. After knock-down of STK17A (serine/threonine kinase 17a) the results were viability z-score, siRNA alone -1.38; inactive. Depletion of PDIK1L (PDLIM1 interacting kinase 1 like) gave: viability z-score, siRNA alone -0.0404; inactive.

In a second layout: 2 of the entries above
{"gene": "CDK5R1 (cyclin dependent kinase 5 regulatory subunit 1)", "viability z-score, siRNA alone": -0.0843, "Outcome": "inactive"}
{"gene": "STK16 (serine/threonine kinase 16)", "viability z-score, siRNA alone": 0.68, "Outcome": "inactive"}

The list goes on:
DGKB (diacylglycerol kinase beta) gave viability z-score, siRNA alone -0.307; inactive. After knock-down of MYO3A (myosin IIIA) the results were viability z-score, siRNA alone 0.296; inactive. Against CTNNB1 (catenin beta 1) the deposit lists viability z-score, siRNA alone -3.37; active. For TRIB3 (tribbles pseudokinase 3), the entry reads viability z-score, siRNA alone -0.204; inactive. Against BMAL1 (basic helix-loop-helix ARNT like 1), the entry reads viability z-score, siRNA alone -1.79; inactive. Depletion of KSR1 (kinase suppressor of ras 1) resulted in: viability z-score, siRNA alone -1.19; inactive.

Depletion of TAF1L (TATA-box binding protein associated factor 1 like) resulted in: viability z-score, siRNA alone 0.427; inactive. Knock-down of EPHA3 (EPH receptor A3) resulted in: viability z-score, siRNA alone 0.936; inactive. With knock-down of NIM1K (NIM1 serine/threonine protein kinase), the record shows viability z-score, siRNA alone -0.98; inactive. Against PTK2B (protein tyrosine kinase 2 beta), the entry reads viability z-score, siRNA alone -1.06; inactive. MAPK3 (mitogen-activated protein kinase 3) showed viability z-score, siRNA alone 0.936; inactive.
